Assay results from patent publication US20090253152A1 (OREGON HEALTH AND SCIENCE UNIVERSITY, published 2009).
These are yes or no findings as the source states them, for the method shown. Binding seen in cells or lysates may run through a third protein. Some binding calls cover weakened binding; strength is not graded here. Where a sequence is shown, tags or fusion partners need not be part of it.

How the values were obtained:
[1] = target: T1, IGFBP-3 receptor (P4.33) as the construct EGFP:4-33, expressed in Hs578T breast cancer cells (human) (UniProt Q86XT9); test: co-immunoprecipitation: lysate of Hs578T cells transfected with EGFP:4-33 incubated with the IGFBP-3 protein, precipitated with anti-GFP, immunoblot with anti-IGFBP-3
T1 sequence (looked up): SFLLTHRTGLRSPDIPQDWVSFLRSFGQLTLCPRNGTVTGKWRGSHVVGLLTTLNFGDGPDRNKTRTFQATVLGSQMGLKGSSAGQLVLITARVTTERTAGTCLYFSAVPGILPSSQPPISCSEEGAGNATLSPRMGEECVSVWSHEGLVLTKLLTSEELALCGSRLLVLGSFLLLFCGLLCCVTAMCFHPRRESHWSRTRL

[2] = target: T1, IGFBP-3 receptor (P4.33) as the construct EGFP:4-33, expressed in Hs578T breast cancer cells (human); test: co-immunoprecipitation with anti-GFP from Hs578T lysate expressing EGFP:4-33, anti-IGFBP-3 immunoblot

Row | Substance | binding [1] | binding [2]
1 | IGFBP-3 G56G80G81 triple mutant (I56G, L80G, L81G), FLAG-tagged (Cos-7 or baculovirus expressed) (from UniProt P17936 28-291) | binds | binds
2 | IGFBP-3 G80G81 double mutant (L80G, L81G), FLAG-tagged (Cos-7 or baculovirus expressed) (from UniProt P17936 28-291) | – | binds
3 | wild-type full-length human IGFBP-3 with C-terminal FLAG epitope (Cos-7 or baculovirus expressed) (from UniProt P17936 28-291) | binds | –
